The text below walks through data of paper PMC4531439, “New insights into the molecular mechanism of the Rab GTPase Sec4p activation” (BMC Structural Biology, 2015).

Test [1] has as its target T1, Sec4p (19–187) S29V (S. cerevisiae) (UniProt P07560).
T1 sequence: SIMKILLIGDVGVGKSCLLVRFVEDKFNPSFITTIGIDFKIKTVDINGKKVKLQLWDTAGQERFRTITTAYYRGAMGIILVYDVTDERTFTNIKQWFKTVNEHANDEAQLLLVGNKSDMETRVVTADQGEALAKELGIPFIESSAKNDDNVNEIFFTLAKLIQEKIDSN
Put plainly: SEC; data not shown; 1.8-fold molar excess of Sec2p(51-142) mixed with Sec4p(19-187) S29V in 20 mM Tris-HCl pH 8.0, 100 NaCl, 5 mM MgCl2, 2 h at 4 °C; Superdex200 (10/300); complex formation evaluated by SDS-PAGE; in presence of nucleotide and magnesium; both purified.

The target of test [2] is T1, Sec4p (19–187) S29V (S. cerevisiae). The test can be described thus: crystal structure; ternary complex Sec4p(19-187) S29V.GDP.Sec2p(51-142) at 15 mg/ml; 24 % PEG3350, 0.2 M sodium citrate, 10 mM GDP added to the drop; 2.9 Å, space group I222, one ternary complex per asymmetric unit; both purified.

Results are given in words; binding and its absence hold for the method and conditions named. Some binding calls cover weakened binding; strength is not graded here.

B1: Sec2p (51–142) (domain or fragment, UniProt P17065 51-142, looked up)
chain: NYNQLKEDYNTLKRELSDRDDEVKRLREDIAKENELRTKAEEEADKLNKEVEDLTASLFDEANNMVADARKEKYAIEILNKRLTEQLREKDT
Regarding B1, the binding entry in test [1] and in test [2] was “binds” each time.
